Measured data: PubChem BioAssay AID1224829 (NIAID, 2016)

Test: 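Genes needed for LPS-driven NF-kappaB p65 nuclear entry in mouse macrophages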 (follow-up of hits)
System: mouse RAW264.7 G9 macrophage reporter cells
Reagents: single siRNA against mouse genes, 100 nM
Time to read-out: 2 days of siRNA knock-down, then 40 min of LPS before fixing
Conditions: LPS (Salmonella minnesota R595) at 10 ng/ml
Measurement: 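High-content images after 40 min LPS exposure; GFP-p65 nucleus to surrounding ring signal ratio, normalised to plate median and non-targeting control wells, expressed as z-score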
Reading the numbers: p65 translocation z-score: higher = more nuclear NF-kappaB p65 after LPS
Rule for the call: 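An siRNA is called active when the mean z-score of its two replicates is above 2 or below -2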
Meaning of the calls: active = changed p65 translocation (either direction); inactive = no clear change
The deposit covers about 3,800 reagents; this is a part drawn at random. 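Calls cover raised and lowered translocation; gene median uses one vendor's three siRNAs; qiagen siRNAs acted more weakly than ambion siRNAs.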 The numbers tell different reagents against one gene apart. Further read-outs or replicates are left out here.

What is on record for 9230109A22Rik (RIKEN cDNA 9230109A22 gene) #1, siRNA vendor or control pool ambion single siRNA?
p65 translocation z-score, replicate mean: -0.67; Outcome: inactive

With 9230109A22Rik (RIKEN cDNA 9230109A22 gene) #2, siRNA vendor or control pool ambion single siRNA, what was measured?
p65 translocation z-score, replicate mean: -0.0288; Outcome: inactive

What is on record for 9230109A22Rik (RIKEN cDNA 9230109A22 gene) #3, siRNA vendor or control pool ambion single siRNA?
p65 translocation z-score, replicate mean: 0.152; Outcome: inactive

How did the screen score 9230109A22Rik (RIKEN cDNA 9230109A22 gene) #4, siRNA vendor or control pool qiagen single siRNA?
p65 translocation z-score, replicate mean: -0.338; Outcome: inactive

For 9230109A22Rik (RIKEN cDNA 9230109A22 gene) #5, siRNA vendor or control pool qiagen single siRNA, how do the results read?
p65 translocation z-score, replicate mean: 2.04; Outcome: active

Which result is listed for 9230109A22Rik (RIKEN cDNA 9230109A22 gene) #6, siRNA vendor or control pool qiagen single siRNA?
p65 translocation z-score, replicate mean: 1.25; Outcome: inactive

With C3ar1 (complement component 3a receptor 1) #1, siRNA vendor or control pool ambion single siRNA, how do the results read?
p65 translocation z-score, replicate mean: -0.169; Outcome: inactive

Which result is listed for C3ar1 (complement component 3a receptor 1) #2, siRNA vendor or control pool ambion single siRNA?
p65 translocation z-score, replicate mean: -2.44; Outcome: active

With C3ar1 (complement component 3a receptor 1) #3, siRNA vendor or control pool ambion single siRNA, what was measured?
p65 translocation z-score, replicate mean: -2.06; Outcome: active

What did the screen give for C3ar1 (complement component 3a receptor 1) #4, siRNA vendor or control pool qiagen single siRNA?
p65 translocation z-score, replicate mean: -0.359; Outcome: inactive

With C3ar1 (complement component 3a receptor 1) #5, siRNA vendor or control pool qiagen single siRNA, what does the deposit list?
p65 translocation z-score, replicate mean: 3.3; Outcome: active

With C3ar1 (complement component 3a receptor 1) #6, siRNA vendor or control pool qiagen single siRNA, how do the results read?
p65 translocation z-score, replicate mean: -1; Outcome: inactive
